Measurements from paper PMC10813977.

Sequences of proteins named here, by UniProt entry; tags and fusion partners are left off.
UniProt P42224: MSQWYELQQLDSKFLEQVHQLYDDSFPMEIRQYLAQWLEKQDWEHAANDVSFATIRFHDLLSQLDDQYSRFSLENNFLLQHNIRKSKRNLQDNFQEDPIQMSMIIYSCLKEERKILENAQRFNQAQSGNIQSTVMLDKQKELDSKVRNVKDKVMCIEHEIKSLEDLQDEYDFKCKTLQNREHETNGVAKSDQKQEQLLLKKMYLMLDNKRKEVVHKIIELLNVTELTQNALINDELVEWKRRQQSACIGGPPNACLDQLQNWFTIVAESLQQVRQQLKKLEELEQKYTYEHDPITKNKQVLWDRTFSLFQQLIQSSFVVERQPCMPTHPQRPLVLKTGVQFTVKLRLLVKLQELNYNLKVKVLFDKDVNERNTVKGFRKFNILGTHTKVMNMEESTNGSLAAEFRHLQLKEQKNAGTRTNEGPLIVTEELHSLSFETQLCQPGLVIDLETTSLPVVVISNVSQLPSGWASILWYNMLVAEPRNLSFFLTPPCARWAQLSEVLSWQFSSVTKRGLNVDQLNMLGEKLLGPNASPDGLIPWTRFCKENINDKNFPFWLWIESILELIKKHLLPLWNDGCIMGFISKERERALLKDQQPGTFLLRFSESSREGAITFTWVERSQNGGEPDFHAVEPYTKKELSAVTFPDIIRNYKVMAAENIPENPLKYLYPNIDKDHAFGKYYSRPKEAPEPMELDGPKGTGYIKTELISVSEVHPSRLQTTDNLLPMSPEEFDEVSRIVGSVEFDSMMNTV
UniProt P28838: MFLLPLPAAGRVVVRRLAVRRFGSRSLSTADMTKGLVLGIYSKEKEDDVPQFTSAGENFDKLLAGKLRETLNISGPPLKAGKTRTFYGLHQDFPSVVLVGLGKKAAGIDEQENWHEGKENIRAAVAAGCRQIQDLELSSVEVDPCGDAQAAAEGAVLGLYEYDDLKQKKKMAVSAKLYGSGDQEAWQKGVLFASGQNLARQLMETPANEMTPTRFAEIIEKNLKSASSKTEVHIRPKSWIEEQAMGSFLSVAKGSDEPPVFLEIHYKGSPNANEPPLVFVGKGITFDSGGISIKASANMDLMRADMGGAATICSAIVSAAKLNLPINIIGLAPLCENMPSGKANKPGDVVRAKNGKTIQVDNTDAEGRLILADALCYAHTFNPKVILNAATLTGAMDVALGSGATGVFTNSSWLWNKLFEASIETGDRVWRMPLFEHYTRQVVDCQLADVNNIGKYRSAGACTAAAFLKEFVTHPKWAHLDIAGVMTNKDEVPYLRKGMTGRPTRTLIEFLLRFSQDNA

T1: tryptophanyl-tRNA synthetase (WARS) tagged with Flag (human (cDNA from the A375 cell line)) (UniProt P23381)
T1 sequence: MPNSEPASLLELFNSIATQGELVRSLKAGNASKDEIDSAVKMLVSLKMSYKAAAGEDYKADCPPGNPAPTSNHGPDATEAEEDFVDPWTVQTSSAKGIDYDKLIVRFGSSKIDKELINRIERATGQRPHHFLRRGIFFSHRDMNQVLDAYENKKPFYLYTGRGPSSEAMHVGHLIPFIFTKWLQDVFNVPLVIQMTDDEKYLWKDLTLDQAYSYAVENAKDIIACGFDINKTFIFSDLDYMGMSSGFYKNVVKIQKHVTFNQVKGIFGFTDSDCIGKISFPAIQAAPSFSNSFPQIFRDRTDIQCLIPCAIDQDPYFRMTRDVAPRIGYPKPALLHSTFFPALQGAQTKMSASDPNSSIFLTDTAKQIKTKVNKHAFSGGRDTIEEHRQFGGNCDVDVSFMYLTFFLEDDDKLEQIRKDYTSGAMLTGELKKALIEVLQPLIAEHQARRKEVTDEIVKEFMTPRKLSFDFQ


Tests used:
[1] = biological target: T1, tryptophanyl-tRNA synthetase (WARS) tagged with Flag (human (cDNA from the A375 cell line)); test: affinity purification with mass spectrometry; A375 cells transfected with WARS-Flag or control vector, treated with IFN-γ for 48 h; lysis in 50 mM Tris-HCl pH 8, 150 mM NaCl, 0.5% Nonidet P-40; anti-FLAG beads overnight at 4 °C, six washes, elution with 3× Flag peptide, tryptic digestion, LC-MS/MS
[2] = biological target: T1, tryptophanyl-tRNA synthetase (WARS) tagged with Flag (human (cDNA from the A375 cell line)); test: as above; remark: listed apart in the source

Row | binding [1] | binding [2] | Molecule
1 | binds | – | Signal transducer and activator of transcription 1 (STAT1), endogenous (from UniProt P42224 1-750)
2 | binds | – | cytosolic aminopeptidase LAP3 (from UniProt P28838 1-519) (enzyme)
3 | – | binds | Glycyl-tRNA synthetase (GARS) (enzyme, UniProt P41250 37-739) SAASCPPISLPAAASRSSMDGAGAEEVLAPLRLAVRQQGDLVRKLKEDKAPQVDVDKAVAELKARKRVLEAKELALQPKDDIVDRAKMEDTLKRRFFYDQAFAIYGGVSGLYDFGPVGCALKNNIIQTWRQHFIQEEQILEIDCTMLTPEPVLKTSGHVDKFADFMVKDVKNGECFRADHLLKAHLQKLMSDKKCSVEKKSEMESVLAQLDNYGQQELADLFVNYNVKSPITGNDLSPPVSFNLMFKTFIGPGGNMPGYLRPETAQGIFLNFKRLLEFNQGKLPFAAAQIGNSFRNEISPRSGLIRVREFTMAEIEHFVDPSEKDHPKFQNVADLHLYLYSAKAQVSGQSARKMRLGDAVEQGVINNTVLGYFIGRIYLYLTKVGISPDKLRFRQHMENEMAHYACDCWDAESKTSYGWIEIVGCADRSCYDLSCHARATKVPLVAEKPLKEPKTVNVVQFEPSKGAIGKAYKKDAKLVMEYLAICDECYITEMEMLLNEKGEFTIETEGKTFQLTKDMINVKRFQKTLYVEEVVPNVIEPSFGLGRIMYTVFEHTFHVREGDEQRTFFSFPAVVAPFKCSVLPLSQNQEFMPFVKELSEALTRHGVSHKVDDSSGSIGRRYARTDEIGVAFGVTIDFDTVNKTPHTATLRDRDSMRQIRAEISELPSIVQDLANGNITWADVEARYPLFEGQETGKKETIEE
4 | – | binds | Aspartyl-tRNA synthetase (DARS) (enzyme, UniProt P14868 1-501) MPSASASRKSQEKPREIMDAAEDYAKERYGISSMIQSQEKPDRVLVRVRDLTIQKADEVVWVRARVHTSRAKGKQCFLVLRQQQFNVQALVAVGDHASKQMVKFAANINKESIVDVEGVVRKVNQKIGSCTQQDVELHVQKIYVISLAEPRLPLQLDDAVRPEAEGEEEGRATVNQDTRLDNRVIDLRTSTSQAVFRLQSGICHLFRETLINKGFVEIQTPKIISAASEGGANVFTVSYFKNNAYLAQSPQLYKQMCICADFEKVFSIGPVFRAEDSNTHRHLTEFVGLDIEMAFNYHYHEVMEEIADTMVQIFKGLQERFQTEIQTVNKQFPCEPFKFLEPTLRLEYCEALAMLREAGVEMGDEDDLSTPNEKLLGHLVKEKYDTDFYILDKYPLAVRPFYTMPDPRNPKQSNSYDMFMRGEEILSGAQRIHDPQLLTERALHHGIDLEKIKAYIDSFRFGAPPHAGGGIGLERVTMLFLGLHNVRQTSMFPRDPKRLTP

Like-named read-outs stand apart in the source and are kept apart here. No constants are given. Whether binding was seen depends on the method and setting. Binding seen in cells or lysates may run through a third protein. Here binding means that the protein was enriched with, or labelled near, the bait; the list need not be complete. Tags and fused reporters may be left off the sequences shown.
